# Laboratory results as given in the supplement of paper PMC6411743.
# Amino acid sequences for entries named in this document (tags omitted).
# UniProt P54709, whole entry: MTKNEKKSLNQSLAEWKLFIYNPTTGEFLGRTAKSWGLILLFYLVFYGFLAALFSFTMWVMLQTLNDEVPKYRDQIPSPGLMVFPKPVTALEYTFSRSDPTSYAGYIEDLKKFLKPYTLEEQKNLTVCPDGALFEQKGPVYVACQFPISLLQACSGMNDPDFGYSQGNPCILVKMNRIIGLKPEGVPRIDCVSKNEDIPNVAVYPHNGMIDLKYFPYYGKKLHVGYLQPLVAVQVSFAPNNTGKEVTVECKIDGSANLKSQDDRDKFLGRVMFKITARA
# ± gives the standard deviation of the averaged measurements. This is a selection; strong and weak results do not stand in their true shares.
# Molecular target: ATP1B3 (UniProt P54709)
# Assay: NP40-soluble protein abundance relative to vehicle (solubility fold change) (ratio); higher = more soluble protein in presence of ATP
# Outline: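 Jurkat crude lysate prepared with a Dounce homogeniser was treated at eight concentrations spanning 0.1 to 10 mM, 10 min at room temperature then 3 min at 37 °C. Solubilisation with 0.8% NP40 and benzonase and ultracentrifugation preceded TMT labelling of the supernatant for LC-MS/MS. Fold change against the detergent-processed vehicle was determined per replicate from vsn-normalised intensities, across three independent experiments.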
smiles,measurement,setting,value
Nc1ncnc2c1ncn2[C@@H]1O[C@H](COP(=O)(O)OP(=O)(O)OP(=O)(O)O)[C@@H](O)[C@H]1O [adenosine triphosphate],NP40-soluble protein abundance,concentration: 1mM,0.973 ± 0.098
same,NP40-soluble protein abundance,concentration: 2mM,0.973 ± 0.0084
same,NP40-soluble protein abundance,concentration: 4mM,0.936 ± 0.079
same,NP40-soluble protein abundance,concentration: 6mM,0.9533 ± 0.00095
same,NP40-soluble protein abundance,concentration: 8mM,0.933 ± 0.06
same,NP40-soluble protein abundance,concentration: 10mM,0.908 ± 0.028
